This is an account of results in PubChem BioAssay AID1508600 (Functional Genomics Laboratory (NCATS/FGL), 2020).

In all, about 53,000 sequences went through this assay and about 3,700 (7%) were called active.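 The calls were made as follows: active = gene knockdowns whose robust z-score for IL-1 alpha signal is at least 2 or at most -2, so actives lie on both sides; inactive = the rest.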 Some of the results follow.

This assay can be described thus: Components of the Cytosolic LPS Sensing Pathway: Gene Identification via Genome-wide siRNA Screen.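 Also: robust z of the log signal after scaling to non-targeting control siRNA wells of the plate.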 The following applies: RAW264.7 macrophages, IL-1a HTRF, actives lie on both sides, screened at 100 nM (by protocol), cells primed 5 h with Pam3CSK4 first. The method, boiled down: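 Cells (RAW264.7, 1×10^4 per well) were transfected with siRNA at 100 nM and cultured 48h at 37 degrees C. Pam3CSK4 was added for 5 hours; LipidA transfection followed for 24 hour. IL-1a was then measured by HTRF.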
For the sequence CGUUCUUCAGCUAUUCAUUTT against Slc37a3, the z-score was inactive: 1.06. Under CGACCUAUUAGAGAGCAACTT against Zfp248 stands active: 2.58; under CGCAGUAACCUGUUUGAGCTT against Amz2, inactive: 1.22; under UUCUGUGAUCAUGUCUUCUTT against Tuba1b, inactive: -1.6. As to GGCUGUAAAACUCUGGUUUTT against Vmn1r195, the z-score is active: 2.82. Consider GGUAUCUCUACCUCGAGGATT against Cdk4, for which the z-score is inactive: 0.24. Under CCAAAAUCGGGAAAGGAAATT against Ldb2 stands inactive: -0.00816. Under GCUACAGAAUCAUACGAUGTT against Zfp521 stands inactive: -0.606; under GGCAUUAAGUGCUUGCUCATT against AI837181, inactive: -1.73; under GGGCAAUGUUCAGACUCUCTT against Klhl20, inactive: 0.861. On to GGACUGUGAUCAGGUUUGUTT against Elk3, for which the z-score was inactive: 0.695. The same measure for CCGAAUCCUUAAAAUCUGCTT against Zfp78: inactive: 0.0432. Under GGACGCAUGGAUCAAAAAATT against Abhd17c stands inactive: 0.618; under GCCGCUGCACACUUUCUAUTT against Trim65, inactive: -0.0927; under GGUACAGAUCUGGUCCUACTT against Il17rc, inactive: -0.991. Under GGGCUCACACAGAAAAAUUTT against Cd244a stands inactive: -0.685; under GAUCAUCCAGCUGAAGCAGTT against Mafg, inactive: -1.35. Consider GCAUAUAUUCACCACUAACTT against Mettl25, for which the z-score was inactive: 0.116. Regarding GGAAACUACUCCAUGGUGATT against Olfr967, the z-score was inactive: -0.564.

As to CCUAAACAGCCUUAUCGAUTT against Clca3a1, the z-score is inactive: 0.0828. Under CGUGCUAAACCAAGACUUATT against Lyplal1 stands inactive: 1.25; under “CCCUGCUGGUUGGUAAUCATT against F830005K03Rik”, inactive: 0.548.

Turning to CGUAUUCCAUGGUUUCCUATT against Whrn, the z-score is inactive: 0.111. Under GGAGAUUGAACCAAAGCCUTT against Smpdl3b stands inactive: 0.153; under GGAGUUGUAGAGAAUUUAGTT against Zfp85, inactive: 1.11. The same measure for CCGAACAAAGAACUGUUCATT against Slc25a47: inactive: 0.151; for CCUCUGUCUGCUAAUAAGATT against R3hdm4: inactive: 1.01; for GGAAGUGCUCUGCUGUACATT against Eml6: inactive: 0.655. Under GGAUUCCAGAUUAAAUGAUTT against Rfc1 stands inactive: 1.09.

Regarding “GGAGGUUAGUGACUCAUUUTT against 9230112E08Rik”, the z-score was inactive: -1.3. The same measure for GGACUUUUACCAGUUCUCCTT against Ece2: active: -2.43; for GGUUGUUUGCUUACGAUGUTT against Ttll12: inactive: -0.0758.

As to GGUAUGUCUGUAACUCUGGTT against Il15ra, the z-score was inactive: 0.708. For the sequence GGACUUCUAUCCACUCACGTT against Helz, the z-score is inactive: -1.95. The same measure for CCCUGUCUUUCCUAGGCCATT against Mcat: active: -3.3.

As for GCUGGUUUCUUAUAGGAAGTT against Dnmt3b, the z-score is inactive: 1.03.

Take CGCCAGGUAGUGAUAUCAATT against Fancm: the z-score was inactive: 1.81.

Regarding GCGUGAGCUAAUGUUCACATT against Agpat2, the z-score is inactive: -0.255. Under GGCAACCAUACUUCAUCUATT against Hmces stands inactive: -0.0694; under GCAUUAAAACUUCCUUUUGTT against Ubl3, inactive: 0.679. For the sequence GCUGUAAGCAGUCCAAAUATT against Kdelr3, the z-score is inactive: 1.43. Under CCAUCCUCCUACUCGUUAGTT against Vmn1r233 stands active: 2.03. The same measure for CCCAUUUGGAUUCACUAACTT against Tmem132d: inactive: 0.293; for GGCUCAGUGAAGGCAAGUUTT against Hspb2: active: 2.56. Under GGUGUUUUCUGUGCUGUGATT against Klhdc3 stands inactive: -1.55; under GGCAGAUCAUUGGAUUCUATT against Tsc22d4, inactive: 1.64; under GGGAUUGAUUUGACUCACATT against Kars, inactive: -0.0112. On to GGUUAUUUUGGGAAUAUUCTT against Ndufab1, for which the z-score was inactive: -0.651.

As to GGUUAAAGGUGCAUUUAAATT against Olfr1448, the z-score was inactive: -0.717. The same measure for “GGGUACAGGACUCAAGAGUTT against 9130230L23Rik”: inactive: 0.411; for UUGUUAUAGCACUUCCAAATT against Vwa3b: active: 2.12.

Turning to GGCCUUCCUUUGUUUUUUUTT against Jup, the z-score was inactive: -0.227. Under GGAGGUCAUUGUAUGGAACTT against Bpnt2 stands inactive: 1.04; under GGCUGAAGAACUCCUACAATT against Dennd1c, active: 2.17. For GGGCUGUAUUUCUUUACCCTT against Mrgprb2, the z-score is inactive: 0.508. Under GGAGAAAAUUCAUACCCGATT against Pcgf5 stands inactive: 1.58; under GGAGAGACCAGAAUGGUAUTT against Fbxw21, inactive: -1.12; under GGGAUCUUGGAGAACCAAATT against Slc39a5, inactive: -0.694.

Take CCACAAGCUAAUACAUGCUTT against Ubac1: the z-score was inactive: -1.37. Under GGAGCCUCACUUCUAUCUUTT against Foxk1 stands inactive: -0.464; under CCAGGUGUAUAAUAAGAUGTT against Atp8b3, inactive: 0.271; under CGACCACACAGGGAUAUACTT against Sectm1a, inactive: -0.169. The same measure for GGAUUCAAAGAAAAUCCUGTT against B3galt2: inactive: -0.0494; for GGGCCAUUUUCGAUGGUAGTT against Hs3st3a1: inactive: 0.243; for GGAACAAAGAGGUUCUAGGTT against Olfr202: inactive: 0.0754. The same measure for GGACAGACUACACUUCUAUTT against Msto1: inactive: 0.818; for CCACACUGAGGACUAUAUUTT against Cstf1: inactive: 1.01. For the sequence CCGCCAAAGAUUUUAACCCTT against Dennd10, the z-score is inactive: 0.186.
